Patent US6828392 (dated 2004)

Key:
[1] = general procedure: Fmoc solid-phase peptide synthesis; HYDRA resin 4c (photolabile linker); Fmoc amino acid OPfp esters/HOAt or Fmoc amino acid/TBTU/N-ethyl morpholine; details: whole synthesis, RP-HPLC; run 1
[2] = general procedure: Fmoc solid-phase peptide synthesis; PEGA800; Fmoc amino acid OPfp esters/HOAt or Fmoc amino acid/TBTU/N-ethyl morpholine; details: whole synthesis, RP-HPLC; run 2

## AcY(NO2)FN(Trt)PLAVK(Boc-Abz)
[1]
  crude HPLC purity: greater than 95% pure
[2]
  crude HPLC purity: 95%
